Results reported in PubChem BioAssay AID2003 (Broad Institute, 2009).
The list shows a part of the results. Potency and affinity values are given separately. The source made no clear call on entries shown without one.

test: PubChem AID 2003; details: H4 cells, SNCA 5'UTR luciferase reporter, luminescence; at 12 µM (top of the series) unless noted

Compound | activation
COc1ccc(-n2ncc3c(N4CCc5ccccc54)ncnc32)cc1 | -17.5%
Cc1ccc(OCC(=O)Nc2ccc3c(c2)OCO3)c(C)c1 | 76.2%
Nc1nc(Nc2ccccc2F)sc1C(=O)c1ccccc1 | -1.1%
CCOC(=O)c1sc2nc3n(c(=O)c2c1C)CCCCC3 | 65.4%
O=C(NN/C(=N/S(=O)(=O)c1ccc(Cl)cc1)c1ccccc1)c1cccc(Cl)c1 | 119%
Cc1no[n+]([O-])c1COc1ccccc1/C=N/n1nnnc1N | 34.6%
Clc1ccc2nc(CSCc3ccccc3)cn2c1 | 10.1%
Cc1ccc(-n2c(C)cc(C(=O)COC(=O)c3ccc[nH]c3=O)c2C)cc1 | 33.6%
O=C(COC(=O)c1cccs1)c1ccc2c(c1)OCCO2 | 47%
O=C(OCc1ccccc1F)c1ccc2c(c1)OCCO2 | 39.6%
CCc1ccc(NC(=O)c2ccccc2NC(=O)C2CCCO2)cc1 (stereo not given) | 77.1%
O=C(NCCSc1ccccc1)c1ccccc1 | 68%
CN(C)/C=N/c1ncc(C(=O)c2ccccc2)s1 | 65.4%
c1csc(C2=NNC(=NC3CCCCC3)SC2)c1 | 5.4%
Cc1nnc(SCC(=O)c2cc(C)n(C3CC3)c2C)s1 | 12.1%
Cc1ccc(Nc2nc(-c3ccncc3)cs2)cc1 | 150%
Cc1ccc(-n2nc3c(n2)/C(=N/O)CC/C3=N\O)cc1 | 75%
COc1ccc(Nc2oc(-c3ccc(F)cc3)nc2C#N)cc1 | 89.8%
CCn1c(=N)n(CC(=O)c2ccc(Cl)c(Cl)c2)c2ccccc21 | 96.4%
Cc1cc(C(=O)O/N=C(\N)c2ccc(C(C)(C)C)cc2)no1 | 153%
O=C(NCCC1=CCCCC1)c1cnc2n(c1=O)CCS2 | 53.7%
Cc1ccc(-c2cc(-c3ccccc3[N+](=O)[O-])[nH]n2)c(O)c1 | 99.3%
c1ccc(N2CCN(c3nc4cc5c(cc4s3)OCCO5)CC2)cc1 | 19.7%
Cc1nn(-c2ccccc2)c(/N=C/c2ccccc2O)c1-c1ccccc1 | 52.8%

Compound | activation
O=C(Cc1cccs1)Nc1ccc(-c2nc3ccccc3[nH]2)cc1 | 3.7%
O=C(N/N=C/c1ccc(OCc2ccccc2)cc1)c1ccncc1 | 68.4%
COc1ccc(C2C(=O)c3ccccc3C2=O)c(OC)c1 | 75.6%
CCOC(=O)c1nnc2cc(-c3ccc(Br)cc3)nn2c1C | 41.8%
CC(=O)c1c(C)[nH]c(C(=O)NCCC2=CCCCC2)c1C | 59.9%
N#Cc1ccsc1NC(=O)COC(=O)c1ccc2ccccc2c1 | 81.4%
O=C(Nc1cnc2ccccc2c1)C1COc2ccccc2O1 (stereo not given) | 83.9%
Cc1csc(NC(=O)Nc2ccccc2[N+](=O)[O-])n1 | 27.2%
O=C(NNC1=NCCCCC1)Nc1cccc(Cl)c1 | 65.5%
COc1ccc(Oc2nnc(C)c3ccccc23)cc1 | 68.5%
CC(=O)c1cnc2cc(-c3ccc(C)cc3)nn2c1C | 31.3%
CC1CCC(NC(=O)Cn2ncc3ccccc32)CC1 (stereo not given) | 67.6%
Cc1cc(C2=NNC(=NCCc3ccccc3)SC2)c(C)n1CC1CCCO1 (stereo not given) | 61.7%
Cc1ccccc1Nc1nc(N)nc(CSc2ccc(F)cc2)n1 | 94.7%
N#Cc1c(-c2ccc(Cl)cc2)ccn2nc(C3CCCCC3)nc12 | 50.1%
CCOC(=O)c1sc(Nc2ccccc2Cl)nc1C | 53.7%
Cc1ccc(-n2ncc(Cl)c2C(=O)NC2CC2)cc1 | 58.7%
COc1ccccc1C(=O)Nc1nnc(SCC(=O)NCC2CCCO2)s1 (stereo not given) | 84.1% [at 6 µM]
O=C(Nc1ccc(N2CCCCC2)cc1)C(Cl)c1ccccc1 (stereo not given) | 90.6%
COc1cc2ccccc2cc1C(=O)Nc1nccs1 | 140%
Cc1csc(NC(=O)c2nc3nccc(C)n3n2)n1 | 49%
O=C(Cc1nc(=O)c2ccccc2s1)Nc1ccccc1 | -5.8%
O=C(Nc1nccs1)c1cc2c(s1)-c1ccccc1OC2 | 100%
Cc1ccc2c(c1)NC(=O)c1cccnc1N2 | 77.5%

Compound | activation
O=C(CC(=O)c1ccccc1)Nc1cccnc1Cl | 39.6%
Clc1ccccc1-c1nc(-c2ccccc2)n[nH]1 | 82.3%
CCCCSc1ncc(C(=O)OCC)c(N)n1 | 23.8%
C(=C\c1ccccc1)/C=N/Nc1nc2ccccc2s1 | 178%
Cc1ccc2nc(C3CCCCC3)[nH]c2c1 | 44.6%
Cc1ccc(OC(=O)c2cccc([N+](=O)[O-])c2)c(-n2nc3ccccc3n2)c1 | 58.1%
O=c1c(Cl)c(N/N=C/c2ccc(Cl)cc2)cnn1-c1ccccc1 | 12.9%
COCCNC(=O)/C(C#N)=C/c1cc(C)n(C2CCCCC2)c1C | 144% [at 6 µM]
Cc1ccc(N=Nc2c(N)n(-c3ccccc3)[nH]c2=O)cc1 | 63.2%
Cc1cc(C(=O)NC2CCCCC2)c(C)n1-c1ccc(F)cc1 | 29.4%
CCN1CCN(C(=O)c2cc3c(s2)-c2c(C)cccc2OC3)CC1 | 44.8%
O=C(/C=C1\NCC2c3ccccc3CCN2C1=O)c1ccccc1 (stereo not given) | 155%
Cc1cccn2c1nc(=S)n2C(=O)c1ccco1 | 154%
COC(=O)Cc1c(OC)ccn(CCc2c[nH]c3ccccc23)c1=O | 67.2%
Cc1nnc2n(c1=O)N=C(c1ccc(Cl)cc1)CS2 | 64.8% [at 3 µM]
Cc1ccc(-n2c(C)cc(C(=O)COC(=O)c3c(C)noc3C)c2C)cc1 | 52.2%
c1ccc(-n2nc3c(ccc4cnnc43)[nH]2)cc1 | 77.7%
CC1(C)Cc2c(sc(NC(=O)Nc3ccccc3)c2C(N)=O)CO1 | 48.5%
CCc1sc(C(=O)Nc2ccc3c(c2)OCCO3)cc1Br | 62.2%
O=C(NC1CCCC1)c1cc(-c2ccccc2)on1 | 260%
O=C(Nc1ccc(Cl)cc1)c1ccc(OCC2CCCO2)cc1 (stereo not given) | 65.2%
CC(C)(C)c1ccc(NC(=O)Nc2ccc(F)cc2)cc1 | -21.6%
Cc1ccsc1C(=O)Nc1ccc(OCc2ccccc2)cc1 | 58.8%
C=C(C)CSc1nncn1/N=C/c1ccc(OC)cc1 | 52%

Compound | activation
O=C(c1cnn(-c2ccc(Cl)cc2)c1)c1ccccc1O | 129% [at 3 µM]
O=c1oc(-c2ccccc2)nc2sc3c(c12)CCCC3 | 89.1%
COC(=O)CSc1nc(-c2cccs2)ccc1C#N | 79.3%
O=c1c2ccccc2nc2oc3ccccc3n12 | 58.7%
COc1ccc2c(c1)C1=NN(/C(C)=C\C(C)=O)C(c3ccccc3)C1CC2 (stereo not given) | 86.6%
Cc1cc2cc(OCc3ccccc3)ccc2n1C | 110%
CC(=O)Oc1ccc(C)cc1-n1nc2ccccc2n1 | 87.8%
O=C(COC(=O)c1ccc[nH]c1=O)NCCc1ccc(Cl)cc1Cl | 78.8%
N#Cc1cc2c(nc1SCC(=O)Nc1sc3c(c1C#N)CCC3)CCCC2 | 55.8%
COc1ccc(N2C(=O)CC(Sc3nc(C)cc(C)c3C#N)C2=O)cc1 (stereo not given) | 60.2%
CCc1c(C)nc(SCC(=O)c2cccs2)c(C#N)c1C | 44.4%
CC(C)c1ccc(-c2cc(C(=O)N3N=C(C(F)F)CC3(O)C(F)F)c3ccccc3n2)cc1 (stereo not given) | -23.9%
Cc1ccc(C(=O)OCC(=O)c2cc(C)n(CC3CCCO3)c2C)cc1 (stereo not given) | 27.8%
Clc1ccc(-c2csc(Nc3ccccc3)[n+]2Cc2ccco2)c(Cl)c1 | 87%
N/C(=N\OC(=O)/C=C/c1ccccc1Cl)c1cccnc1 | 112%
O=C(COC(=O)c1ccccc1[N+](=O)[O-])c1ccc2c(c1)OCO2 | 58.8%
Cc1cc(C(=O)CSc2nnnn2-c2ccccc2)c(C)n1CC1CCCO1 (stereo not given) | 78%
O=C(c1ccc(Cl)s1)N1CCc2ccccc21 | 79.4%
Cc1cc(=O)oc2cc(NC(=O)c3ccccc3Cl)ccc12 | 98.9%
O=C1CCCc2nc3c(cc21)C(O)Oc1c-3ccc2ccccc12 (stereo not given) | 103%
CCOC(=O)CSc1nc(-c2ccncc2)ccc1C#N | 51.5%
Cc1ccc(NC(=O)CN2CCCCCC2)c(Br)c1 | 95.9%
CCOC(=O)c1cnc(SCC(=O)c2ccccc2)nc1N | 100% [at 6 µM]
Cc1ccc(C(=O)Nc2ccc(C(F)(F)F)n(C)c2=O)cc1 | 51.8%

Molecules shown so far with a nitro group on carbon, in the order listed:
Compound | activation
Cc1ccc(-c2cc(-c3ccccc3[N+](=O)[O-])[nH]n2)c(O)c1 | 99.3%
Cc1csc(NC(=O)Nc2ccccc2[N+](=O)[O-])n1 | 27.2%
Cc1ccc(OC(=O)c2cccc([N+](=O)[O-])c2)c(-n2nc3ccccc3n2)c1 | 58.1%
O=C(COC(=O)c1ccccc1[N+](=O)[O-])c1ccc2c(c1)OCO2 | 58.8%

Next compounds

Compound | activation
Cn1c(=O)c(/C=C/c2ccccc2)nc2ccccc21 | 62.2%
Cc1ccc2c(CC(=O)N3CCc4ccccc43)coc2c1 | 44%
Fc1ccc(N2CCN(c3cnc4ccccc4n3)CC2)cc1 | 127%
O=C(NNC(=O)c1cc2ccccc2cc1O)c1cccs1 | 23.7% [at 6 µM]
CCOC(=O)c1sc(=NC(=O)c2ccc(C)c(C)c2)n(C)c1C | 88.5%
COc1ccc(-n2nnnc2-c2nc3ccccc3s2)cc1 | -31.3%
Cc1cccnc1NC(=S)NC(=O)c1cccs1 | 222%
Clc1c(CSc2nc3ccccc3o2)nc2ccccn12 | -12.7%
COc1ccc2c(COC(=O)c3n[nH]c4ccccc34)cc(=O)oc2c1 | 57.3%
O=C(Nc1cnc2ccccc2c1)N1CCCCC1 | 15.8%
O=C(Nc1ccc(Br)cc1)c1ccc(CSC2=NCCS2)cc1 | 26.3%
Cc1ccccc1OCc1nnc2c3cnn(C)c3ncn12 | 42.9%
NC(=O)C1=C[C@H](C2CCCCC2)C[C@H](OCc2ccc(CO)cc2)O1 | 49.3%
Cc1cc(C)c2nc(-n3nc(C)cc3N)cc(C)c2c1 | 63.8%
O=C(N/N=C/c1sc(=O)n(-c2ccccc2)c1Cl)c1ccccc1 | 26.8%
CCCCn1nnc(N(C(=O)c2cccs2)C(=O)c2cccs2)n1 | 75.8%
O=C(N/N=C/c1ccccc1O)NC12CC3CC(CC(C3)C1)C2 | 37%
COc1ccc(Cn2c(C3CC3)nc3ccc(NC(=O)C4CC4)cc3c2=O)cc1 | 22.5%
CCOc1cc(/C=N/NC(=O)Nc2ccccc2)ccc1O | 140%
CC(C)(C)c1ccc(C(=O)NC(=S)N2CCOCC2)cc1 | 63.8%
CCOC(=O)c1sc(=NC(=O)/C=C/c2cccs2)n(C)c1C | 132%
CC1(C)CC(=O)c2cnc(N3CCc4ccccc4C3)nc2C1 | 123% [at 6 µM]
O=[N+]([O-])c1ccc2nc(-c3ccc(Cl)cc3)n(OCc3ccccc3)c2c1 | 31.6%
CSc1nsc(N/N=C/c2ccc3c(c2)OCO3)c1C#N | 217%
